This is an account of results in PubChem BioAssay AID342 (DTP/NCI, 2004).

The test concerns Swiss mice, Sarcoma 180 sc, mean tumor weight T/C. Kind of test: NCI In Vivo Anticancer Drug Screen. Data for tumor model Sarcoma 180 (subcutaneous) in Swiss mice. Conditions: T/C endpoint: mean tumor weight, higher T/C = larger tumour; for T/C: evaluated on day 8. The method in brief: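 Mice bearing transplanted tumors were treated with compound, and survival or tumor size was measured. Values are expressed as the treated-group measurement (T) divided by the vehicle-treated control measurement (C).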

Setting [1] is: dose: 250.0 mg/kg/injection, schedule: Q01DX007 (ip), vehicle: saline.
[2] abbreviates: dose: 166.5 mg/kg/injection, schedule: Q#A X014 (ip), vehicle: methylcellulose (MC).
The mark [3] stands for this setting: dose: 250.0 mg/kg/injection, schedule: Q#A X014 (ip), vehicle: methylcellulose (MC).
Where [4] appears, read: dose: 375.0 mg/kg/injection, schedule: Q#A X014 (ip), vehicle: methylcellulose (MC).

Molecules are shown by their SMILES. The list is a part of this screen's results and no random one: it is rich in T/C values a quarter to a half above the control, in often repeated tests (any T/C) and in doses without a T/C. Other doses and runs of a compound stand elsewhere. T/C gives the treated animals as a percentage of the vehicle group. Schedules are NCI's codes, read here as Q, the interval in days (D) or hours (H), X, the number of doses. Some schedules carry Z or #; the key to these is not given. Some T/C values are followed by the survivors on the day toxicity was checked, most often the fifth; without a count, all were alive then. Some entries were tested several times; the values are given in rising order. Some doses have a count of surviving animals in place of a T/C: the source holds a T/C of zero for them, seemingly a mark for toxic or unscored doses. Counts of survivors are from the toxicity check (mostly the fifth day) where no day follows; animals may have died later.

For `CN(C)c1nc(N(C)C)nc(N(C)C)n1`, the survivor count is on record as 6 of 10 (dose: 58.7 mg/kg/injection, schedule: Q#A X014 (ip), vehicle: carboxymethylcellulose (CMC)); 3 of 6 (dose: 125.0 mg/kg/injection, schedule: Q#A X014 (ip), vehicle: carboxymethylcellulose (CMC)); 2 of 10 (dose: 180.0 mg/kg/injection, schedule: Q01DX007 (ip), vehicle: carboxymethylcellulose (CMC)); 2 of 6 (dose: 250.0 mg/kg/injection, schedule: Q#A X014 (ip), vehicle: carboxymethylcellulose (CMC)).

`CS(=O)(=O)OCCCCOS(C)(=O)=O`: the survivor count is 3 of 6 (dose: 50.0 mg/kg/injection, schedule: Q#A X014 (ip), vehicle: carboxymethylcellulose (CMC)) and 2 of 10 (dose: 79.0 mg/kg/injection, schedule: Q01DX007 (ip), vehicle: carboxymethylcellulose (CMC)).

Take `CC(C)CC(C)(C[N+](=O)[O-])C[N+](=O)[O-]`: the survivor count (dose: 20.0 mg/kg/injection, schedule: Q01DX007 (ip), vehicle: saline) is reported as 0 of 6.

For `C[C@]12CC[C@@H]3c4ccc(O)cc4CC[C@H]3[C@@H]1C[C@H](O)C2`, the T/C (dose: 2.5 mg/kg/injection, schedule: Q01DX007 (sc), vehicle: steroid suspending solution) is 140 % of control. Besides, under “dose: 10.0 mg/kg/injection, schedule: Q#A X014 (ip), vehicle: methylcellulose (MC)”, the survivor count is recorded as 3 of 6.

As for `OCC(F)(F)C(F)(F)C(F)(F)F`, the T/C under setting [1] was 128 % of control. The survivor count (dose: 1000.0 mg/kg/injection, schedule: Q01DX007 (ip), vehicle: saline) is 0 of 6 and 4 of 8.

As to `CC(=O)OCC1OC(n2cnc3c(=S)nc(N)[nH]c32)C(OC(C)=O)C1OC(C)=O` (stereo unspecified), the survivor count was 2 of 6 (dose: 50.0 mg/kg/injection, schedule: Q01DX007 (ip), vehicle: other); 3 of 6 (dose: 80.0 mg/kg/injection, schedule: Q01DX007 (ip), vehicle: saline); 0 of 6 under setting [1].

As to `O=c1[nH]cc(N(CCCl)CCCl)c(=O)[nH]1`, the survivor count is, setting by setting: (dose: 1.25 mg/kg/injection, schedule: Q#A X014 (ip), vehicle: carboxymethylcellulose (CMC)) 2 of 6; (dose: 1.6 mg/kg/injection, schedule: Q01DX007 (ip), vehicle: carboxymethylcellulose (CMC)) 6 of 10; (dose: 3.0 mg/kg/injection, schedule: Q01DX007 (ip), vehicle: saline) 3 of 6.

Take `O=C(CCN1CC1)OCCOC(=O)CCN1CC1`: under “dose: 13.5 mg/kg/injection, schedule: Q#A X014 (ip), vehicle: methylcellulose (MC)”, the survivor count is reported as 3 of 6.

Take `CN(C)[C@@H]1C(=O)C(C(=O)NCNc2nc(=S)c3[nH]cnc3[nH]2)=C(O)[C@@]2(O)C(=O)C3=C(O)c4c(O)cccc4[C@@](C)(O)[C@H]3C[C@@H]12`: the survivor count (dose: 125.0 mg/kg/injection, schedule: Q01DX007 (ip), vehicle: carboxymethylcellulose (CMC)) is given as 1 of 6.

`COc1cc(C[C@H]2c3cc(OC)c(OC)cc3CCN2C)c(Oc2cc3c(cc2OC)-c2c(OC)c(OC)cc4c2[C@H](C3)N(C)CC4)cc1OC`: the survivor count by setting is: under setting [1], 3 of 6; (dose: 500.0 mg/kg/injection, schedule: Q01DX007 (ip), vehicle: saline) 0 of 6.

With `CC1(C)O[C@@H]2C[C@H]3[C@@H]4CCC5=CC(=O)CC[C@]5(C)[C@@]4(F)[C@@H](O)C[C@]3(C)[C@]2(C(=O)CO)O1`, the survivor count was 5 of 8 (dose: 3.3 mg/kg/injection, schedule: Q#A X014 (sc), vehicle: steroid suspending solution); 1 of 8 (dose: 5.0 mg/kg/injection, schedule: Q#A X014 (sc), vehicle: steroid suspending solution); 1 of 8 (dose: 7.5 mg/kg/injection, schedule: Q#A X014 (sc), vehicle: steroid suspending solution); 4 of 7 (dose: 18.0 mg/kg/injection, schedule: Q01DX007 (sc), vehicle: steroid suspending solution); 3 of 8 (dose: 200.0 mg/kg/injection, schedule: Q01DX007 (sc), vehicle: steroid suspending solution); 2 of 8 (dose: 300.0 mg/kg/injection, schedule: Q01DX007 (sc), vehicle: steroid suspending solution).

In the case of `O=[n+]1c2c(n([O-])c3ccccc31)-c1cccc3cccc-2c13`, the survivor count reads like this: (dose: 62.0 mg/kg/injection, schedule: Q01DX007 (ip), vehicle: carboxymethylcellulose (CMC)) 2 of 6; (dose: 210.0 mg/kg/injection, schedule: Q01DX007 (ip), vehicle: carboxymethylcellulose (CMC)) 0 of 6; (dose: 315.0 mg/kg/injection, schedule: Q01DX007 (ip), vehicle: carboxymethylcellulose (CMC)) 1 of 6.

Consider `CCOC1=C(N2CC2)C(=O)C(OCC)=C(N2CC2)C1=O`, for which the survivor count (dose: 2.65 mg/kg/injection, schedule: Q#A X014 (ip), vehicle: methylcellulose (MC)) was 2 of 6.

As for `Nc1nc2n[nH]nc2c(=O)[nH]1`, the survivor count runs as follows: (dose: 126.0 mg/kg/injection, schedule: Q01DX007 (ip), vehicle: other) 6 of 10; (dose: 800.0 mg/kg/injection, schedule: Q01DX007 (ip), vehicle: other) 0 of 6.

As for `O=C(CCCl)N1CCN(C(=O)CCCl)CC1`, the T/C runs as follows: under setting [2], 37, 63 [4 of 6 alive], 87 % of control; under setting [3], 29, 45, 66 [5 of 6 alive], 117 % of control; under setting [4], 8, 12 [5 of 6 alive], 54 % of control [5 of 6 alive]. Moreover, the survivor count under setting [2] is given as 3 of 6; the survivor count under setting [3] is reported as 2 of 6; the survivor count under setting [4] was 2 of 6 and 3 of 6.

On to `CO[C@H](C(=O)[C@@H](O)[C@@H](C)O)[C@@H]1Cc2cc3cc(OC4CC(OC5CC(O)C(O)C(C)O5)C(O)C(C)O4)c(C)c(O)c3c(O)c2C(=O)[C@H]1OC1CC(OC2CC(OC3CC(C)(O)C(O)C(C)O3)C(O)C(C)O2)C(O)C(C)O1` (stereo partly specified), for which the survivor count is, setting by setting: (dose: 0.25 mg/kg/injection, schedule: Q01DX007 (ip), vehicle: water) 3 of 6; (dose: 0.5 mg/kg/injection, schedule: Q01DX007 (ip), vehicle: water) 1 of 6; (dose: 0.6 mg/kg/injection, schedule: Q01DX007 (ip), vehicle: water) 1 of 6; (dose: 3.0 mg/kg/injection, schedule: Q01DX007 (ip), vehicle: water) 1 of 6; (dose: 4.0 mg/kg/injection, schedule: Q01DX007 (ip), vehicle: water) 3 of 6; (dose: 5.0 mg/kg/injection, schedule: Q01DX007 (ip), vehicle: water) 2 of 6.

For the compound `CC1C/C=C2\CSC(NC(=O)/C3=C\N(C/C=C/C=C/C(O)CC(O)CC(=O)N3)C2=O)C(=O)O1` (stereo unspecified), the T/C (dose: 75.0 mg/kg/injection, schedule: Q01DX007 (ip), vehicle: carboxymethylcellulose (CMC)) was 140 % of control.

With `N#Cc1ccc(S(N)(=O)=O)cc1`, the survivor count runs as follows: (dose: 111.0 mg/kg/injection, schedule: Q01DX007 (ip), vehicle: other) 2 of 6; (dose: 166.0 mg/kg/injection, schedule: Q01DX007 (ip), vehicle: other) 0 of 6; (dose: 250.0 mg/kg/injection, schedule: Q01DX007 (ip), vehicle: other) 0 of 6; (dose: 375.0 mg/kg/injection, schedule: Q01DX007 (ip), vehicle: other) 0 of 6.

On to `CC1(C)O[C@@H]2C[C@H]3[C@@H]4CCC5=CC(=O)C=C[C@]5(C)[C@@]4(F)[C@@H](O)C[C@]3(C)[C@]2(C(=O)CO)O1`, for which the survivor count (dose: 3.75 mg/kg/injection, schedule: Q#A X014 (sc), vehicle: steroid suspending solution) was 1 of 8.
